Measured values taken from article PMC7150497.
Construct, isoform or probe ends are uncertain for at least one entry. Where cells or extracts were used, other partners may take part. No signal at the amounts used counts as a negative. At least one verdict rests on a figure or table, not on a statement of the authors.

Protein sequences, listed by entry. Tags and fused reporters are not part of them. Lines headed by an entry give the natural chain unless they say otherwise; changes in a name come on top.
UniProt P15941: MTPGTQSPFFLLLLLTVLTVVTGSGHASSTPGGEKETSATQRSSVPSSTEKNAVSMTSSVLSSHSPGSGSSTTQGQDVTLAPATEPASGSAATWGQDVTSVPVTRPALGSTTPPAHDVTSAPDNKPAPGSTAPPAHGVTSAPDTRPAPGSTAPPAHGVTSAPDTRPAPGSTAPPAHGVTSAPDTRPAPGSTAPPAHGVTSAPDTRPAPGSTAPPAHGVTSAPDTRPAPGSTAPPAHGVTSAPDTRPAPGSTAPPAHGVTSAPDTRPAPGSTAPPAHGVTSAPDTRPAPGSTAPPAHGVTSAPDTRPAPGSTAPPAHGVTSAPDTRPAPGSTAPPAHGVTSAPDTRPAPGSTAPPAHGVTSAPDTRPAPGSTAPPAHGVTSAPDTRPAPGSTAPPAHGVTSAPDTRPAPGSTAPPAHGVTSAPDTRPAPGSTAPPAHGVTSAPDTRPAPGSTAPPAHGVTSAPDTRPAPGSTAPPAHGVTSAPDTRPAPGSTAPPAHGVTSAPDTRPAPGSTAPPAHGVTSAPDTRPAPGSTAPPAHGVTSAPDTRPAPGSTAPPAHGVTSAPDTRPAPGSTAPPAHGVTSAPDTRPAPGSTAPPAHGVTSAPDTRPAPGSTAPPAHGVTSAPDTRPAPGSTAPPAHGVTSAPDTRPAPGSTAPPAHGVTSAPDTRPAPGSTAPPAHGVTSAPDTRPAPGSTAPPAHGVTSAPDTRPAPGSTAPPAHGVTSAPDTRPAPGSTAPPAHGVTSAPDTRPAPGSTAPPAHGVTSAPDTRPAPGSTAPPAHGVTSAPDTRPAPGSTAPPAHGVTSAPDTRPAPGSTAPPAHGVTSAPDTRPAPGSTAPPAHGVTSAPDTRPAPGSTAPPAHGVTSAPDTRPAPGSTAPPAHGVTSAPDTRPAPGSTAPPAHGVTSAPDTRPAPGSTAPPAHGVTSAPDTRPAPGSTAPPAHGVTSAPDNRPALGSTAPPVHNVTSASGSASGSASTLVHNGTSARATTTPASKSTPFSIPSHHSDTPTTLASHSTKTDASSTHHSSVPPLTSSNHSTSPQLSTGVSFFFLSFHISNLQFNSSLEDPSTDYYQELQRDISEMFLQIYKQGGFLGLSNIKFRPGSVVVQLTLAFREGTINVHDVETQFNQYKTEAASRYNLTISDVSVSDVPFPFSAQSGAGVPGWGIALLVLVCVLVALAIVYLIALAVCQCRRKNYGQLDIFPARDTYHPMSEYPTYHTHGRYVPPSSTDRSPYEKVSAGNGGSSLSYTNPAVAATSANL

Target: MUC1 (mucin 1) (human) (UniProt P15941)
Test: confocal fluorescence cell binding
Conditions: DMEM with 1 mg/mL BSA, 10% FBS, 4.5 g/L glucose, 150 nM aptamer, 60 min, 37 °C, cells pretreated with 100 uM chlorpromazine, aptamer folded in 1x PBS pH 7.4, protein on the cell surface

GCAGTTGATCCTTTGGATACCCTGGACCTCACGACCATTCTGC [Apt-Pri (MUC1 aptamer-primer)]
binding result (5 mM MgCl2, MCF-7, HeLa, A549 cells, signal follows MUC1 level, label: 5'-Cy5, single-stranded DNA): binds

ATCTGTATTCATGTATTCTTGTATTACCTCACGACCATTCTGC [mApt-Pri (mismatched Apt-Pri, random aptamer section)]
binding result (5 mM MgCl2, cells, label: 5'-Cy5, single-stranded DNA): no binding

GCAGTTGATCCTTTGGATACCCTGGACCTCACGACCATTCTGC / CTAACAATTATCACTGGGTCGTGAGGT / GTACGGCAGAATCAGTGATAATTGTTAGAAGAAAAAAAAATCCCAACCCGCCCTACCCTA [DNA ternary complex (Apt-Pri/Ass-Pri/Loop)]
binding result (5 mM MgCl2, cells before polymerase addition, Loop strand circularized, label: 5'-Cy5 on Apt-Pri): binds
